No constants are given. Whether binding was seen depends on the method and setting. Some binding calls cover weakened binding; strength is not graded here.
What was measured:
AtFIPS3 (Arabidopsis) = molecular target: T1, AtFIPS3 (Arabidopsis) (UniProt F4JC20); test: two-hybrid; AD (pGAD-C(1)) and BD (pGBD-C(1)) fusions in yeast PJ69-4; dual transformants tested on media lacking leucine, tryptophan and adenine; positive if all tested colonies (4 to 10) grew; both combinations of clones tested whenever possible
T1 sequence: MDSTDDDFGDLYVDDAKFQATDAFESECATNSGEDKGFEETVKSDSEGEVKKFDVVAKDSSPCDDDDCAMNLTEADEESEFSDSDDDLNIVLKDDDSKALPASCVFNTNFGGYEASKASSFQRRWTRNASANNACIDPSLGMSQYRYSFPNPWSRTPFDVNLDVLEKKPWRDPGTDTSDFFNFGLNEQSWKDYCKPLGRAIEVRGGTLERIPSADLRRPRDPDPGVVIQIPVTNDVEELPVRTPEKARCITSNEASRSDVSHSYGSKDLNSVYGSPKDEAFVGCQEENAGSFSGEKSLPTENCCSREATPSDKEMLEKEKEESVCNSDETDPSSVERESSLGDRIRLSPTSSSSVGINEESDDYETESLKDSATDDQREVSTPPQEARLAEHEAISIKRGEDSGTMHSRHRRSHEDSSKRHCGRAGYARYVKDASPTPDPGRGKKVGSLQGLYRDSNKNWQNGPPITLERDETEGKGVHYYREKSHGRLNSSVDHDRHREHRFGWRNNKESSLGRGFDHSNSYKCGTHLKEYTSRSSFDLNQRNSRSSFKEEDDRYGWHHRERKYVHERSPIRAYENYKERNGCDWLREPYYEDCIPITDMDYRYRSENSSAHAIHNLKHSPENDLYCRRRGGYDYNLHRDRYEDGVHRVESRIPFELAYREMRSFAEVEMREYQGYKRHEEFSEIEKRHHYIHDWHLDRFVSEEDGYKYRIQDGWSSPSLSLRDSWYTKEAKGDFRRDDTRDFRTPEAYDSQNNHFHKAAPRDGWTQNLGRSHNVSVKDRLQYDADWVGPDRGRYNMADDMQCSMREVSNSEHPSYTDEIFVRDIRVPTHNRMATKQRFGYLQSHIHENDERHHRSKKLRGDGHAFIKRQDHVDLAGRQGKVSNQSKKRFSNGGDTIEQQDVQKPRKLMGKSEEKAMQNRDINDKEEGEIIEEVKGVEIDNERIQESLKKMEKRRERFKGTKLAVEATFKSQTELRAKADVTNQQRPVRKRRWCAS

AtCPSF160 (Arabidopsis) = molecular target: T2, AtCPSF160 (Arabidopsis) (UniProt Q9FGR0); test: as above
T2 sequence: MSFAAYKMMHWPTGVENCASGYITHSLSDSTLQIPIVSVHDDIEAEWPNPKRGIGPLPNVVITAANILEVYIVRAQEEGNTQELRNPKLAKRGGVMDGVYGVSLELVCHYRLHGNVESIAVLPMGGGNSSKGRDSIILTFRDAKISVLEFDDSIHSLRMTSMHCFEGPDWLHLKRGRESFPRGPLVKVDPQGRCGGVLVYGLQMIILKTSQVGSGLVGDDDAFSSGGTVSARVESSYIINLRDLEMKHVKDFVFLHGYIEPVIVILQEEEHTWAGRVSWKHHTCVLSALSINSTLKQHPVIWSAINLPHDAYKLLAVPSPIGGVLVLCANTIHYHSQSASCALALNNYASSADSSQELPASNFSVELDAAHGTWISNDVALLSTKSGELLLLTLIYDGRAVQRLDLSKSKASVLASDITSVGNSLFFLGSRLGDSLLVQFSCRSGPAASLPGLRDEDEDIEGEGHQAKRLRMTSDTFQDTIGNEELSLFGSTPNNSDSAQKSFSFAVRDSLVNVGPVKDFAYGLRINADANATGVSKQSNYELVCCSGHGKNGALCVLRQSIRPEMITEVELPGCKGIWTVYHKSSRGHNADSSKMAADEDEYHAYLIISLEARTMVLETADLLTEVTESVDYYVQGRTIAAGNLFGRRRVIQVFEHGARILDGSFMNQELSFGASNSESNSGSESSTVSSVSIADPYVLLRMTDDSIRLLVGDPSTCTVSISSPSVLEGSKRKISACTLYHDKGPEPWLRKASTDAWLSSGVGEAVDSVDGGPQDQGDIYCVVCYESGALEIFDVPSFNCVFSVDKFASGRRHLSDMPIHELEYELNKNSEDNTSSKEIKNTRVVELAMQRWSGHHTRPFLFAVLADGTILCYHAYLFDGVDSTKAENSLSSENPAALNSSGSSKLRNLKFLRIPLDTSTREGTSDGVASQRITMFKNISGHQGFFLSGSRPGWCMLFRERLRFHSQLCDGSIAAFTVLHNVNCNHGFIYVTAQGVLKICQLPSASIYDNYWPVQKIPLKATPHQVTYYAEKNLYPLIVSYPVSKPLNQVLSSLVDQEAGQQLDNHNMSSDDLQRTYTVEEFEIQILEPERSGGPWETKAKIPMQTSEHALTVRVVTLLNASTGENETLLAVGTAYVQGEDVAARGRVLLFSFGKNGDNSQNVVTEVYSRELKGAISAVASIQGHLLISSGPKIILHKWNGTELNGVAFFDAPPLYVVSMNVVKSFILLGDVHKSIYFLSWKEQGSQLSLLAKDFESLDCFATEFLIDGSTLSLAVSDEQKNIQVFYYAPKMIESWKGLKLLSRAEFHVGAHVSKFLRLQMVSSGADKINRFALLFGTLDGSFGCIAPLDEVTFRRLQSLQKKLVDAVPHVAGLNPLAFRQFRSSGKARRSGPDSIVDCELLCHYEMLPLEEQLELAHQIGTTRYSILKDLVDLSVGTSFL

B1: AtCPSF30 (protein, UniProt A9LNK9-2 1-250)
chain: MEDADGLSFDFEGGLDSGPVQNTASVPVAPPENSSSAAVNVAPTYDHSSATVAGAGRGRSFRQTVCRHWLRGLCMKGDACGFLHQFDKARMPICRFFRLYGECREQDCVYKHTNEDIKECNMYKLGFCPNGPDCRYRHAKLPGPPPPVEEVLQKIQQLTTYNYGTNRLYQARNVAPQLQDRPQGQVPMQGQPQESGNLQQQQQQQPQQSQHQVSQTLIPNPADQTNRTSHPLPQGVNRCVQSPKVFNWVL
With B1 the binding (AtFIPS3 (Arabidopsis)) was “binds” and the binding (AtCPSF160 (Arabidopsis)) was “binds”.
